Measurements reported in paper doi:10.1101/2020.02.07.938530.
Results are given in words; binding and its absence hold for the method and conditions named. In cells and extracts the contact can be indirect. Here binding means that the protein was enriched with, or labelled near, the bait; the list need not be complete. For part of these data: Tags and fused reporters may be left off the sequences shown.

The chains behind the UniProt entries cited, without tags or fusion partners.
UniProt Q12158: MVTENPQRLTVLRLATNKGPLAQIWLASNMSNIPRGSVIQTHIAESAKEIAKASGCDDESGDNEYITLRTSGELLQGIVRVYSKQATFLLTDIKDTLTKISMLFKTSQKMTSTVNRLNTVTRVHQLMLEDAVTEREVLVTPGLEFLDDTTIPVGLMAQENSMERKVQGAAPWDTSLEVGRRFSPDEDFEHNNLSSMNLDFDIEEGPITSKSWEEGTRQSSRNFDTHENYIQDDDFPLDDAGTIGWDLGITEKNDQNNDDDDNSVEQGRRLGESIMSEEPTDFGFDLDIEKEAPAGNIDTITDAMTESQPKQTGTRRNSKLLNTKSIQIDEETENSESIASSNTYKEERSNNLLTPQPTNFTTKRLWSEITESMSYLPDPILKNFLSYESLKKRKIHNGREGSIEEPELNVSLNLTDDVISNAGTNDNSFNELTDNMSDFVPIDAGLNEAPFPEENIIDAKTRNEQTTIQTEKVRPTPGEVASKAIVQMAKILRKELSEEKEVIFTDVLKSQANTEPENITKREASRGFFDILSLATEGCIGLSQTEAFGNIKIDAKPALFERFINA
UniProt P47037: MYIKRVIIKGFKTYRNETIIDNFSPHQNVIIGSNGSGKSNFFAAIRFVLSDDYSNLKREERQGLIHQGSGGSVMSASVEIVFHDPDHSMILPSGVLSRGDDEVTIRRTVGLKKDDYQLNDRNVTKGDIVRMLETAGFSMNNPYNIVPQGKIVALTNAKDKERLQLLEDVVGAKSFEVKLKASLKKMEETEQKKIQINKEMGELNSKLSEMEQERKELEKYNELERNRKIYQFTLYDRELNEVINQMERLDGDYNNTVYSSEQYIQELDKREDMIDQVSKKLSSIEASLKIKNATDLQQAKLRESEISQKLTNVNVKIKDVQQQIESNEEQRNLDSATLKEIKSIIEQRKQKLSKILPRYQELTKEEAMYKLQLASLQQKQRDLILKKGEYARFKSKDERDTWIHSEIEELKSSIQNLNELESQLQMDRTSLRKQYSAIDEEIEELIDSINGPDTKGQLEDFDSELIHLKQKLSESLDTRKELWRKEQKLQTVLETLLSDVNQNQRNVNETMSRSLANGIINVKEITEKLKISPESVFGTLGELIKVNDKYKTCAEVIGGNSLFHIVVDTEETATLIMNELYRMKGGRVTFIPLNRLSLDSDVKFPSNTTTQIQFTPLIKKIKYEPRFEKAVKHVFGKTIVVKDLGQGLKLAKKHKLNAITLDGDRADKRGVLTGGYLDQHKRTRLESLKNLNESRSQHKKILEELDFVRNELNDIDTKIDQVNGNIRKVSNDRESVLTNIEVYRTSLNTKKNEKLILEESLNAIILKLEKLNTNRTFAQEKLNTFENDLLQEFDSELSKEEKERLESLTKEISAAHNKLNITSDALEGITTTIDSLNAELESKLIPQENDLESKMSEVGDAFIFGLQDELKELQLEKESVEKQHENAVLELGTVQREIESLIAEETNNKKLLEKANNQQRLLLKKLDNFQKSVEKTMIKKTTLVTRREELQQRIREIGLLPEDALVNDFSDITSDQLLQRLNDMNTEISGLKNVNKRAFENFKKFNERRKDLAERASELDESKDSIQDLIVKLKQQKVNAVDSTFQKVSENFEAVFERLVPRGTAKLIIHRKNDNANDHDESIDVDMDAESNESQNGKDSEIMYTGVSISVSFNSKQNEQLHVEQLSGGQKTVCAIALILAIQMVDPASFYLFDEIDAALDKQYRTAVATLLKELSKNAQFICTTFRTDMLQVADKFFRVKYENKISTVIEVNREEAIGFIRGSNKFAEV

B1: Scc3 (protein, UniProt P40541 1-1150)
chain: MTAVRRSTRIRTKSQVIEEDYDDEQNTSAQHVESDKITAKTQHEEEEEQDTGESEESSSEDDYEDQDDDDYVDTATAKRKSRKRKPKSASNTSSKRQKKKPTSAQKSAVSHAPAYHRSKKDQDQYLEIAKDFQPTELFDILSTSEDVSIEELLREWLETYSENRDKFLQEFINLLLNCCGSVARVEDHDVHSNESSNETIGEIQLLFQRQKLHEFYLLISKENKKRKNFKMGPLYQNFAEFMTKLLEVANDLQLLYVESDEDDTQIVTGNLVLDLLTWLSSFSVCKIRCFRYISTLTLYLFQDYLTQQAVNLEKNYLAKLSKQLSLEEKKKRPNNKTLEKLESTIAETQGSKVVIDSIIDNIVKLCFVHRYKDVSDLIRSESMLHLSIWIKNYPEYFLKVTFLKYFGWLLSDNSVSVRLQVTKILPHLIIQNHNSKSTDNSAIRQVFERFKTKILEVAIRDVNLDVRIHSIQVLTEASSLGYLDDSEILIISSLMFDEEFDPFKTSSFNKRSKFLSTVAKFLARVIKEKFDEFIKTHEDLPKEVDGLEVGPVVQVGIFIKILNDSLIYHLKDCAEVDSRTKIRMLTQAAEFLSPYISTHLKTICNLLISDTESNELIQKLQNSANNNSDDEDVDDEELDITPLFPIDRNSTILYLNVFHGLCAGANNPKIQTKDSVKEIVLPLFYDLLNAASIESADILCPLLESFITFSLDDWISIGYETELKKITDKTIKAFMDSTIGNSKVDMKYDIFAKFIHHIHHFEKKELQEKFLNQIATLKIHLKKFLQEKMDPNNSRDDYKDLTCSLYELYINKLTILGRDYPIEVDEELLQLFLNNFVSRIPIMFQDFDDSTAQEINFKMLVLLATWNLEKWREIIEKVRDYENSISKDLRSVWKPIAAIIGRLNTLVISLAATNETFENINSLFYLKWSACTSLMDIIVAIKIFELKLPADATTWRYSMSEQFPFYLHDNASKVLLKIFLYLESLFAKQVDVQLERVADEDANLNDLPETGFFENIETEFLLFTVKLKGLMKLNILDERFASRVALNKEKLGPLFKKIVDDTIMENPEPNKKNIQKAKSNQTQREKAPLQPNSERETDHANTENNDPDIPMTIDLEPIEESSQNNSELAPIEEHPTVVDAIDNSDEITQD
B2: Pds5 (protein, UniProt Q04264 1-1277)
chain: MAKGAVTKLKFNSPIISTSDQLISTNELLDRLKALHEELASLDQDNTDLTGLDKYRDALVSRKLLKHKDVGIRAFTACCLSDILRLYAPDAPYTDAQLTDIFKLVLSQFEQLGDQENGYHIQQTYLITKLLEYRSIVLLADLPSSNNLLIELFHIFYDPNKSFPARLFNVIGGILGEVISEFDSVPLEVLRLIFNKFLTYNPNEIPEGLNVTSDCGYEVSLILCDTYSNRMSRHLTKYYSEIIHEATNDDNNSRLLTVVVKLHKLVLRLWETVPELINAVIGFIYHELSSENELFRKEATKLIGQILTSYSDLNFVSTHSDTFKAWISKIADISPDVRVEWTESIPQIIATREDISKELNQALAKTFIDSDPRVRRTSVMIFNKVPVTEIWKNITNKAIYTSLLHLAREKHKEVRELCINTMAKFYSNSLNEIERTYQNKEIWEIIDTIPSTLYNLYYINDLNINEQVDSVIFEYLLPFEPDNDKRVHRLLTVLSHFDKKAFTSFFAFNARQIKISFAISKYIDFSKFLNNQESMSSSQGPIVMNKYNQTLQWLASGLSDSTKAIDALETIKQFNDERIFYLLNACVTNDIPFLTFKNCYNELVSKLQTPGLFKKYNISTGASIMPRDIAKVIQILLFRASPIIYNVSNISVLLNLSNNSDAKQLDLKRRILDDISKVNPTLFKDQIRTLKTIIKDLDDPDAEKNDNLSLEEALKTLYKASKTLKDQVDFDDTFFFTKLYDFAVESKPEITKYATKLIALSPKAEETLKKIKIRILPLDLQKDKYFTSHIIVLMEIFKKFPHVLNDDSTDIISYLIKEVLLSNQVVGDSKKEIDWVEDSLLSDTKYSAIGNKVFTLKLFTNKLRSIAPDVPRDELAESFTEKTMKLFFYLIASGGELISEFNKEFYPTPSNYQTKLRCVAGIQVLKLARISNLNNFIKPSDIIKLINLVEDESLPVRKTFLEQLKDYVANELISIKFLPLVFFTAYEPDVELKTTTKIWINFTFGLKSFKKGTIFERALPRLIHAIAHHPDIVGGLDSEGDAYLNALTTAIDYLLFYFDSIAAQENFSLLYYLSERVKNYQDKLVEDEIDEEEGPQKEEAPKKHRPYGQKMYIIGELSQMILLNLKEKKNWQHSAYPGKLNLPSDLFKPFATVQEAQLSFKTYIPESLTEKIQNNIKAKIGRILHTSQTQRQRLQKRLLAHENNESQKKKKKVHHARSQADDEEGDGDRESDSDDDSYSPSNKNETKKGHENIVMKKLRVRKEVDYKDDEDDDIEMT
B3: Smc1 (protein, UniProt P32908 1-1225)
chain: MGRLVGLELSNFKSYRGVTKVGFGESNFTSIIGPNGSGKSNMMDAISFVLGVRSNHLRSNILKDLIYRGVLNDENSDDYDNEGAASSNPQSAYVKAFYQKGNKLVELMRIISRNGDTSYKIDGKTVSYKDYSIFLENENILIKAKNFLVFQGDVEQIAAQSPVELSRMFEEVSGSIQYKKEYEELKEKIEKLSKSATESIKNRRRIHGELKTYKEGINKNEEYRKQLDKKNELQKFQALWQLYHLEQQKEELTDKLSALNSEISSLKGKINNEMKSLQRSKSSFVKESAVISKQKSKLDYIFKDKEKLVSDLRLIKVPQQAAGKRISHIEKRIESLQKDLQRQKTYVERFETQLKVVTRSKEAFEEEIKQSARNYDKFKLNENDLKTYNCLHEKYLTEGGSILEEKIAVLNNDKREIQEELERFNKRADISKRRITEELSITGEKLDTQLNDLRVSLNEKNALHTERLHELKKLQSDIESANNQEYDLNFKLRETLVKIDDLSANQRETMKERKLRENIAMLKRFFPGVKGLVHDLCHPKKEKYGLAVSTILGKNFDSVIVENLTVAQECIAFLKKQRAGTASFIPLDTIETELPTLSLPDSQDYILSINAIDYEPEYEKAMQYVCGDSIICNTLNIAKDLKWKKGIRGKLVTIEGALIHKAGLMTGGISGDANNRWDKEEYQSLMSLKDKLLIQIDELSNGQRSNSIRAREVENSVSLLNSDIANLRTQVTQQKRSLDENRLEIKYHNDLIEKEIQPKITELKKKLDDLENTKDNLVKEKEALQNNIFKEFTSKIGFTIKEYENHSGELMRQQSKELQQLQKQILTVENKLQFETDRLSTTQRRYEKAQKDLENAQVEMKSLEEQEYAIEMKIGSIESKLEEHKNHLDELQKKFVTKQSELNSSEDILEDMNSNLQVLKRERDGIKEDIEKFDLERVTALKNCKISNINIPISSETTIDDLPISSTDNEAITISNSIDINYKGLPKKYKENNTDSARKELEQKIHEVEEILNELQPNARALERYDEAEGRFEVINNETEQLKAEEKKILNQFLKIKKKRKELFEKTFDYVSDHLDAIYRELTKNPNSNVELAGGNASLTIEDEDEPFNAGIKYHATPPLKRFKDMEYLSGGEKTVAALALLFAINSYQPSPFFVLDEVDAALDITNVQRIAAYIRRHRNPDLQFIVISLKNTMFEKSDALVGVYRQQQENSSKIITLDLSNYAE
B4: Pds5, Q04264 1-1277 (protein)
chain: B2 chain

What was measured:
Test in all cases: affinity purification with mass spectrometry
[1] = molecular target: T1, 5FLAG-Scc3 (yeast (budding yeast, Saccharomyces cerevisiae)) (UniProt P40541)
T1 sequence: B1 chain

[2] = molecular target: 5FLAG-Scc1 (yeast (budding yeast, Saccharomyces cerevisiae)) (UniProt Q12158)
[3] = molecular target: T2, 5FLAG-Scc3 (yeast (budding yeast, Saccharomyces cerevisiae)), P40541; details: remark: other sources report otherwise
T2 chain: B1 chain

Molecule | binding [1] | binding [2] | also measured
Scc1 (from UniProt Q12158 1-566) | binds |  | 
Smc3 (from UniProt P47037 1-1230) | binds |  | 
B1 |  | binds | 
B2 |  | binds | 
B3 | binds |  | 
B4 |  |  | binding [3]: binds
